Test results published in patent publication CN117327176A.
No constants are given. Whether binding was seen depends on the method and setting. Some entries that bind do so weakly or less than the wild type.

The chains behind the UniProt entries cited, without tags or fusion partners. Residues count along the entry.
UniProt Q969D9, residues 29-159: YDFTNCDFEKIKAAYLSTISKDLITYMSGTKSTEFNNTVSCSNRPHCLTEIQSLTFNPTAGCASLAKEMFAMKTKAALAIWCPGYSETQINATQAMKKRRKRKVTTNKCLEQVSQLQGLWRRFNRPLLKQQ

B1: 1A6 VHH-hFc (Fc fusion, not shown: a dimerising Fc or GST)
chain (part 1 of 2): ESGGGSVQAGGSLRLSCATSRYTYGSSCMAWFRQSPGKEREQVAGIAMGVVTYYADSVKGRFTISQDNGKNTVDLQMDNLKPEDTAMYYCAAGPPHYKCYSVSGGRYNYWGQGTQVTVSS
chain (part 2 of 2): HHHHHH
B2: 2H3 VHH-hFc (Fc fusion, not shown: a dimerising Fc or GST)
chain (part 1 of 2): ESGGGSVQAGGSLRLSCATSTSRFTYGSACMGWFRQSPGKEREQVAGIAMGVVTYYADSVKGRFTISQDNGKNTVDLQMDNLKPEDTAMYYCAAGPAHYKCYSASGGRYNIWGQGTQVTVSS
chain (part 2 of 2): HHHHHH
B3: 4A1 VHH-hFc (Fc fusion, not shown: a dimerising Fc or GST)
chain (part 1 of 2): ESGGGSVQAGGSLRLSCATSRYTYNCMGWFRQSPGKEREQVAGIAMGVVTYYADSVKGRFTISQDNGKNTVDLQMDNLKPEDTAMYYCASGPPHYKCYSASGGRYNYWGQGTQVTVSS
chain (part 2 of 2): HHHHHH
B4: 4B2 VHH-hFc (Fc fusion, not shown: a dimerising Fc or GST)
chain (part 1 of 2): ESGGGSVQAGGSLRLSCATSRYTYGSACMGWFRQSPGKEREQVAGIAMGVVTYYADSVKGRFTISQDNGKNTVDLQMDNLKPEDTAMYYCAAGPAHYLCYSASGGRYTSWGQGTQVTVSS
chain (part 2 of 2): HHHHHH
B5: 4F3 VHH-hFc (Fc fusion, not shown: a dimerising Fc or GST)
chain (part 1 of 2): ESGGGSVQAGGSLRLSCATSRYTYGSSCMGWFRQSPGKEREQVAGIAMGVVTYYADSVKGRFTISQDNNKNTVDLQMDNLKPEDTAMYYCASGPPHYKCYSASGGRYNYWGQGTQVTVSS
chain (part 2 of 2): HHHHHH
B6: 212C7 VHH-hFc (Fc fusion, not shown: a dimerising Fc or GST)
chain (part 1 of 2): ESGGGLVQPGGSLRLSCATSTSRFTYGSACMGWFRQSPGKEREQVAGIAMGVVTYYADSVKGRFTISQDNGKNTVDLQMDNLKPEDTAMYYCAAGPAHYNCYSASGGRYNYWGQGTQVTVSS
chain (part 2 of 2): HHHHHH
B7: 214D11 VHH-hFc (Fc fusion, not shown: a dimerising Fc or GST)
chain (part 1 of 2): ESGGGSVQAGGSLRLSCATSRFTYGSACMGWFRQSPGKEREQVAGIAMGVVTYYADSVKGRFTISQDNGKNTVDLQMDNLKPEDTAMYYCATGPAHYKCYSASGGRYDAWGQGTQVTVSS
chain (part 2 of 2): HHHHHH
B8: 21H6 VHH-hFc (Fc fusion, not shown: a dimerising Fc or GST)
chain (part 1 of 2): ESGGGSVQAGGSLRLSCATSRWTYGTACMGWFRQSPGKEREQVAGIAMGVVTYYADSVEGRFTISQDNEKNTVDLQMDNLKPEDTAMYYCATGPAHYKCYSASGGRYNYWGQGTQVTVSS
chain (part 2 of 2): HHHHHH
B9: 23G12 VHH-hFc (Fc fusion, not shown: a dimerising Fc or GST)
chain (part 1 of 2): ESGGGSVQAGGSLRLSCATSRFTYGSACMGWFRQSPGKEREQVAGIAMGVVTYYADSVKGRFTISQDNGKNTVDLQMDNLKPEDTAMYYCATGPAHYKCYSASGGRYNYWGQGTQVTVSS
chain (part 2 of 2): HHHHHH
B10: 27H4 VHH-hFc (Fc fusion, not shown: a dimerising Fc or GST)
chain (part 1 of 2): ESGGGSVQAGGSLRLSCATSRFTYGSACMGWFRHAPGKEREQVAGIAMGVVTYYADSVKGRFTISQDNGKNTVDLQMDNLKPEDTAMYYCATGPAHYKCYSPSGGRYNYWGQGTQVTVSS
chain (part 2 of 2): HHHHHH
B11: 1A7 VHH-hFc (Fc fusion, not shown: a dimerising Fc or GST)
chain (part 1 of 2): ESGGGSVQAGGSLRLSCATPRYTYGTSCMGWFRQSPGYQREQVAGIAMGVVTYYADSVKGRFTISQDNGKNTVDLQMDNLKPEDTAMYYCAAGPAHYKCYSASGGRYNYWGQGTQVTVSS
chain (part 2 of 2): HHHHHH
B12: 1B7 VHH-hFc (Fc fusion, not shown: a dimerising Fc or GST)
chain (part 1 of 2): ESGGGSVQAGGSLRLSCTTSGYTYSSNCIGWFRQAPGKEREEIATISRVGEITFYADSVKGRFTISQDNTETTVFLQMNSLKPEDTAVYYCAASPPTYGGCPTRSRDYDKWGQGTQVTVSS
chain (part 2 of 2): HHHHHH
B13: 1D1 VHH-hFc (Fc fusion, not shown: a dimerising Fc or GST)
chain (part 1 of 2): ESGGGSVQVGGSLRLSCATSRFTYGSACMGWFRQSPGKEREQVAGIAMGVVTYYADSVKGRFTISQDNGKNTVDLQMDNLKPEDTAMYYCATGPAHYKCYSASGGRYSDWGQGTQVTVSS
chain (part 2 of 2): HHHHHH
B14: 1F3 VHH-hFc (Fc fusion, not shown: a dimerising Fc or GST)
chain (part 1 of 2): ESGGGSVQAGGSLRLSCATSTSRFTYGSACMGWFRQSPGKEREQVAGIAMGVVTYYADSVKGRFTISQDNGKNTVDLQMDNLKPEDTAMYYCAAGPAHYNCYSASGGRYNYWGQGTQVTVSS
chain (part 2 of 2): HHHHHH
B15: 1F9 VHH-hFc (Fc fusion, not shown: a dimerising Fc or GST)
chain (part 1 of 2): ESGGGSVQAGGSLRLSCATSRYTYNCMGWFRQSPGKEREQVAGIAMGVVTYYADSVKGRFTISQDNGKNTVDLQMDNLKPEDTAMYYCAAGPAHYKCYSPSGGRYNYWGQGTQVTVSS
chain (part 2 of 2): HHHHHH
B16: 1H5 VHH-hFc (Fc fusion, not shown: a dimerising Fc or GST)
chain (part 1 of 2): ESGGGLVQPGGSLRLSCATSRYTYNCMGWFRQSPGKEREQVAGIAMGVVTYYADSVKGRFTISQDNGKNTVDLQMDNLKPEDTAMYYCAAGPAHYKCYSPSGGRYNYWGQGTQVTVSS
chain (part 2 of 2): HHHHHH
B17: 2D10 VHH-hFc (Fc fusion, not shown: a dimerising Fc or GST)
chain (part 1 of 2): ESGGGSVQAGGSLRLSCATSRFTYGSACMGWFRQSPGKEREQVAGIAMGVVTYYADSVKGRFTISQDNGKNTVDLQMDNLKPDDTAMYYCATGPAHYKCYSASGGRYNYWGQGTQVTVSS
chain (part 2 of 2): HHHHHH
B18: 2G5 VHH-hFc (Fc fusion, not shown: a dimerising Fc or GST)
chain (part 1 of 2): ESGGGSVQAGGSLRLSCATSRFTYGSACMGWFRQSPGKEREQVAGIAMGVVTYYADSVKGRFTISQDNGKNTVDLQMDNLKPEDTAMYYCATGPAHYNCYSASGGRYNYWGQGTQVTVSS
chain (part 2 of 2): HHHHHH

The binders below were run against 人源TSLP蛋白 (Thymic stromal lymphopoietin) (human) (UniProt Q969D9) (assay: ELISA, coated TSLP 1 μg/mL, VHH-hFc titrated, HRP goat anti-hIgG).

binding, binds:
B1
B2
B3
B4
B5
B6
B7
B8
B9
B10
B11
B12
B13
B14
B15
B16
B17
B18
